Measured values published in patent publication US20070238638.
At least one result comes from cells or an extract, where the contact may be indirect. For some assays here: A weaker result is weaker than the reference pair of the same experiment. For some assays here: Where a protein sequence is shown, tags need not be part of it.

Chains of the proteins cited; added tags and fusions are not shown. Chains listed by the source or under a name are the forms on record and can include a tag or linker. Residues count along the entry.
UniProt P42224, 2-750: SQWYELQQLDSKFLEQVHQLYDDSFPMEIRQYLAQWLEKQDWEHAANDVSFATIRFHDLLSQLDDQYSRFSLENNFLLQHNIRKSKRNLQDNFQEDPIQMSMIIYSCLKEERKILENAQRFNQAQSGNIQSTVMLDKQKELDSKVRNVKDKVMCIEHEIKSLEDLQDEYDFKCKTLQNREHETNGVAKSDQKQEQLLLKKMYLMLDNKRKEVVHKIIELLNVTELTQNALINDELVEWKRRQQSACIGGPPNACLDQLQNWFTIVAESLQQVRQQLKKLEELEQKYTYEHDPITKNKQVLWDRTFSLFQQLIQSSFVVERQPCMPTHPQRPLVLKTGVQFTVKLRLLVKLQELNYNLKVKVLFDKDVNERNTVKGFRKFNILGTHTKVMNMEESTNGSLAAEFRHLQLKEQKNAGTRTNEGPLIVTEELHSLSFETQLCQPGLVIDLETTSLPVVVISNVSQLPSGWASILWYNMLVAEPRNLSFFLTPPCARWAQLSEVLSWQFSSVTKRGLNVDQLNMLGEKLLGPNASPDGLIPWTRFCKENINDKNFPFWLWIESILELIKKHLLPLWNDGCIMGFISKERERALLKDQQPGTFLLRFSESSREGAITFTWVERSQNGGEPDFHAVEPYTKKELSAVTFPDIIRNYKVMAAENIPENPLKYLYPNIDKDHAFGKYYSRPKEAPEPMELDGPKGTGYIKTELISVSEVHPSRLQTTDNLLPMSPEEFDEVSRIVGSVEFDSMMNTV
NF-kappaB p50/p65 heterodimer (Homo sapiens), one chain, as listed by the source: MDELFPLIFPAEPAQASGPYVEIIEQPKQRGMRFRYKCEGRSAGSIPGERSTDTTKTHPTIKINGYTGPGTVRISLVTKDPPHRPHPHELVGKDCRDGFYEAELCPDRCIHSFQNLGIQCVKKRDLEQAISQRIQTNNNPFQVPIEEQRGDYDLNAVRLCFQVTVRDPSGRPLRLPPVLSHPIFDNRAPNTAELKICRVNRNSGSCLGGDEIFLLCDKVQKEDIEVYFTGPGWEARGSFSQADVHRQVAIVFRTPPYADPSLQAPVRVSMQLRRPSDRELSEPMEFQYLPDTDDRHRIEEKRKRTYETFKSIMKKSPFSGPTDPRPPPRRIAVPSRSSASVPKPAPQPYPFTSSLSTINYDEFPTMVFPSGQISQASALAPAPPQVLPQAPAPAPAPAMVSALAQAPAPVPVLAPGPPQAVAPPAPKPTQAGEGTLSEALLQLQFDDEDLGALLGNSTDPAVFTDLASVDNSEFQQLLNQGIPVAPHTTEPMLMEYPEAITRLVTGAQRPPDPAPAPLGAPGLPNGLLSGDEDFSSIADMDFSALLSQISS

Key:
Experiment in all cases: EMSA
[1] = target: T1, NF-kappaB p50 homodimer (Homo sapiens) (UniProt P19838); conditions: protein in an extract, protein details: endogenous, HT-29 nuclear extract, label: 32P
T1 sequence (looked up, limits assumed): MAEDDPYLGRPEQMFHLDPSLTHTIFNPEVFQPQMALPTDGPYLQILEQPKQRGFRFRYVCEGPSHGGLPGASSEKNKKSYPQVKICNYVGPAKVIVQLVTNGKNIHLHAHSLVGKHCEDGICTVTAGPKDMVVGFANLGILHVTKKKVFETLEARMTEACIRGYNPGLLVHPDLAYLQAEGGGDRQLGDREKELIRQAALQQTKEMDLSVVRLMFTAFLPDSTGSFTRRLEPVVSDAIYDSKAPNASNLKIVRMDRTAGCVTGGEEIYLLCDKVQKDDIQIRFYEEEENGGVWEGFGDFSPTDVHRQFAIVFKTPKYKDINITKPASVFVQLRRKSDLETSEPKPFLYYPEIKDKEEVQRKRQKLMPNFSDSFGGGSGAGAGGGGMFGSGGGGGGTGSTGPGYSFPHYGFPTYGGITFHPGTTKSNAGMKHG

[2] = test system: NF-kappaB p50/p65 heterodimer (Homo sapiens); conditions: protein in an extract, protein details: endogenous, HT-29 nuclear extract, label: 32P
STAT1 (Homo sapiens) = STAT1 (Homo sapiens) (UniProt P42224); conditions: anti-STAT1 abolished C1; IFN-gamma only, not IFN-alpha, IFN-beta or poly(I-C); protein in an extract; label: 32P
p53 wild type = p53 wild type (UniProt P04637); conditions: in presence of anti-p53 antibody; protein in a lysate after overexpression; protein details: baculovirus, Sf9 extract; label: 32P
IRF-2 (Homo sapiens) = target: T2, IRF-2 (Homo sapiens) (UniProt P14316); conditions: supershift; IFN-gamma treated; protein in an extract; label: 32P
T2 sequence (looked up, limits assumed): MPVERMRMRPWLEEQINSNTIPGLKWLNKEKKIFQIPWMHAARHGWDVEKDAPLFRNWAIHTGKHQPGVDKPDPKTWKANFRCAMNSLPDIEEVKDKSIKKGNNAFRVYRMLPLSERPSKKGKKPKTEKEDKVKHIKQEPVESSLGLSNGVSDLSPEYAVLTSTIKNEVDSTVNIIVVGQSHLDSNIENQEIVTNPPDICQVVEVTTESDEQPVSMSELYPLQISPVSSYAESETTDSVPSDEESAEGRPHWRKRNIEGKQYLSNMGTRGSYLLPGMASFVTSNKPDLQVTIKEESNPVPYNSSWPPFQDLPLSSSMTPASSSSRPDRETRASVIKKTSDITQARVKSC

IRF-1 (Homo sapiens) = target: T3, IRF-1 (Homo sapiens) (UniProt P10914); conditions: protein in an extract; label: 32P
T3 sequence (looked up, limits assumed): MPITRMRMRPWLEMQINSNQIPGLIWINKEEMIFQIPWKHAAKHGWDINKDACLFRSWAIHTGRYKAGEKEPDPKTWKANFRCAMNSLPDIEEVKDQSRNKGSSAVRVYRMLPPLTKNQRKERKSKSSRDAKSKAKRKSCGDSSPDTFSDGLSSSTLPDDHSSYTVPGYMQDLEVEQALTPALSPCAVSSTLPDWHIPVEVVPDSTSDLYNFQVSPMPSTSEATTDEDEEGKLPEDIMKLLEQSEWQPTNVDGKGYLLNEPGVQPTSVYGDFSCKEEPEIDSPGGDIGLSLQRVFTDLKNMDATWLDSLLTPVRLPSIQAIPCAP

[3] = poly(I-C) treated only, no complex after IFN-gamma, less than kappaB1

AGTAGAGACGGGGTTTCACCATGTTA (double strand) [Bak kappaB2]
binding result [1, 3]: binds more weakly | binding result [2, 3]: binds more weakly

CAGGTTCAAGGGATTCTCCTGCCTCA (double strand) [Bak kappaB1]
binding result ([1]; C1 by supershift, IFN-gamma or poly(I-C) treated, poly(I-C) stronger): binds | binding result ([2]; C2 by supershift, IFN-gamma or poly(I-C) treated, poly(I-C) stronger): binds

CGCCCATTCCTGGAAACTGG (double strand) [Bak GAS]
binding result (STAT1 (Homo sapiens)): binds

GATCCAAAGTGGGCGGGACATGCTCCTGGGCCTGGCCCACCCAGATCACCCCTG / GATCCAGGGGTGATCTGGGTGGGCCAGGCCCAGGAGCATGTCCCGCCCACTTTG [Bak p53 site]
binding result (p53 wild type): binds

GCAAACTGAAAGTGAAACAGCT (double strand) [Bak ISRE]
binding result (IRF-2 (Homo sapiens)): binds | binding result (IRF-1 (Homo sapiens)): binds
